For 1 molecule, binding results are on record in US8728472.

Sequences of proteins named here, by UniProt entry; tags and fusion partners are left off. A change or cut given only in a name is not applied to a line headed by its entry.
UniProt P61809: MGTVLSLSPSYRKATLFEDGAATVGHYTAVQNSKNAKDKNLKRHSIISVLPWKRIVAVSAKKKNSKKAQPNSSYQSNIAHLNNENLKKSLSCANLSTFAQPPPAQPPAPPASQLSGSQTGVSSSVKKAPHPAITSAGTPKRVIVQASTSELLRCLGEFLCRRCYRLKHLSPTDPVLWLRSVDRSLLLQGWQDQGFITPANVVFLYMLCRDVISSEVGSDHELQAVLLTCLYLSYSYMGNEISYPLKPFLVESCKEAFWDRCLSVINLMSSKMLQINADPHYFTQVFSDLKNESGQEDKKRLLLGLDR

Results are given in words; binding and its absence hold for the method and conditions named. Some results given as binding are weak or reduced against the parent protein; the word gives no strength.

Test [1] has as its target p25 expressed in HEK293T cells from a transfected eukaryotic expression plasmid (Mus musculus (Mouse)) (UniProt P61809). Put plainly: immunohistochemical staining of transfected HEK293T cells (FIG. 2C).
Test [2] shares this target. Kind of test: immunostaining of transfected cells.

B1: anti-p25 monoclonal antibody 1C4 (antibody, V domains shown)
VH: QIQLEESGPELRKPGETVRISCKASGYTFTTAGMQWVQKMPGTGLKWIGWINTHSGVPKYAGEFTGRFDFSLETSASTAYLQIVNLKNEDTATYFCARYGKFGEMDYWGQGTSVTVSS
VL: IVMTQSPASLAVSLGQRATISCRSSETVDSDGNSFMHWYQQKPGQSPKLLLYLASTLESGVPARFSGSGSRTDFTLTIDPVEADDAATYYCHQNNEDPTFGGGTKLEIKR
As to B1, the binding result in test [1] and in test [2] was “binds” each time.
